{"source": "paper PMC8596125", "about": "(Advanced Science, 2021)", "experiment": "Photophysical characterizations (SOQ, molar extinction coefficient, FQ)", "format": "physicochemical", "conditions": "in DMSO; for Molar extinction coefficient ε: absorbance at 668 nm, Beer-Lambert law"}
{"compound": "PEG‐dendritic peptide‐pyropheophorbide a [PDPP]", "values": [{"measurement": "SOQ (singlet oxygen quantum yield)", "setting": "DMA sensor, 660 nm laser 80 mW cm-2, relative to Ppa reference 0.50", "value": 0.51}, {"measurement": "Molar extinction coefficient ε", "value": "3.07 10^4 M-1·cm−1"}]}
{"compound": "C=Cc1c(C)c2cc3nc(c4c5[nH]c(cc6nc(cc1[nH]2)C(C)=C6CC)c(C)c5C(=O)C4)[C@@H](CCC(=O)O)[C@@H]3C", "note": "[Ppa, pyropheophorbide a]", "values": [{"measurement": "Molar extinction coefficient ε", "value": "3.49 10^4 M-1·cm−1"}]}
